Measurements from patent US7157222B2, “Method of cryopreservation of tissues by vitrification” (Organ Recovery Systems, Inc., priority 1999, dated 2007).
At least one compound was matched to its structure with a doubt left. No end group written: not given here.

Test system: rabbit jugular vein ring segments
Experiment: Maximal contractile response of vein rings in vascular smooth muscle bath
Assay type: cell-based
Procedure: Vein rings, which are about 4 mm long segments of rabbit external jugular veins, are vitrified in VS55 by the method described above for longer external jugular vein segments, except that perfusion is not used. […] The baseline tension of all vein rings is adjusted to 0.25 to 0.75 g. Changes in tension are recorded by force transducers. After 1 hour of equilibration, the vein rings are pretested with potassium chloride for contraction. After rinsing with KH solution, the vein rings are equilibrated for another 30 minutes prior to the start of experiment. During a relaxation experiment, contraction of the vein rings is produced by 10^−6M norepinephrine and, after the contractile response plateaus, cumulative concentrations of acetylcholine (10^−10M to 10^−4M) are added to the bathing medium to induce the endothelium dependent relaxation response. In the current study, histamine, bradykinin, angiotensin II, and norepinephrine are tested in rabbit jugular vein ring segments vitrified with VS55 and fresh vein rings. Both histamine and bradykinin produce contraction in the vein via their local receptors. Norepinephrine acts directly on the adrenoceptor, while angiotensin II binds to AT receptors and acts through local renin-angiotensin systems.

Sequence: RPPGFSPFR [Bradykinin, bradykinin]
- Maximal Physiological Responses, Control (fresh vein rings (n = 15), Mean ± SEM): 1.75 ± 0.18 g
- Maximal Physiological Responses, % of corresponding fresh controls (vein rings vitrified with VS55 versus fresh vein rings): 85.1%
- Maximal Physiological Responses, Vitrified (vein rings vitrified with vitrification solution VS55 (n = 26), Mean ± SEM): 1.49 ± 0.15 g
